Results are given in words; binding and its absence hold for the method and conditions named. In cells and extracts the contact can be indirect. Some results given as binding are weak or reduced against the parent protein; the word gives no strength. Sequences can lack the tags named with a protein.

The target in assay [1] is T1, Ydr071c (Saccharomyces cerevisiae) (UniProt Q12447).
T1 sequence (looked up): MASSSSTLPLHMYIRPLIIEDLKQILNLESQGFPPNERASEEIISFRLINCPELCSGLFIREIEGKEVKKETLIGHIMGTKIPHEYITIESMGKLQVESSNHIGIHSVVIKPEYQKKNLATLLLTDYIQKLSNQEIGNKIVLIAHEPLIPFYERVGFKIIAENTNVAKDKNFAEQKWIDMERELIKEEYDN
The assay is described as follows: anti-FLAG co-IP, LC-MS/MS.

For assay [2], the target named is T2, Rad3 (Saccharomyces cerevisiae) (UniProt P06839).
T2 sequence (looked up): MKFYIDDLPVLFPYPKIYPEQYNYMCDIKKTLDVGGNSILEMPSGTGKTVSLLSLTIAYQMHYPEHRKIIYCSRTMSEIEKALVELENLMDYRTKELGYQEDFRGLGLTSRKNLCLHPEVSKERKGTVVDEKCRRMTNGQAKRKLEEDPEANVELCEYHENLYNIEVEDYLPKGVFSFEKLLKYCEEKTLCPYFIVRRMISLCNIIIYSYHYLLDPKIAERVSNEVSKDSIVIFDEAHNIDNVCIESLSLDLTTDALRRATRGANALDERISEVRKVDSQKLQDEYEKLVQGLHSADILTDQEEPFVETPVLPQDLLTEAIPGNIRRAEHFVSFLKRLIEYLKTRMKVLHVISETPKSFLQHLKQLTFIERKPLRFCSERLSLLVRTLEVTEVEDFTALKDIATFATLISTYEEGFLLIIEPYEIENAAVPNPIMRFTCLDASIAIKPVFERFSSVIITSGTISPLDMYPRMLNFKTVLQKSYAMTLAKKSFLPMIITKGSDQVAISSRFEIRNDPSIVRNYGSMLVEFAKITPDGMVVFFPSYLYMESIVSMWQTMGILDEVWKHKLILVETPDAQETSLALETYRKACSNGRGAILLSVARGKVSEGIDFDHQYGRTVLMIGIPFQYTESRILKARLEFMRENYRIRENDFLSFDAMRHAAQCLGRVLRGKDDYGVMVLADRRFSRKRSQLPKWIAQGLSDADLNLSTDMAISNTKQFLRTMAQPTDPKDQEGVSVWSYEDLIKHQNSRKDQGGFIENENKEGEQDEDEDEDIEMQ
The assay is described as follows: anti-FLAG co-IP, LC-MS/MS.

The target of assay [3] is T3, Bcy1 (Saccharomyces cerevisiae) (UniProt P07278).
T3 sequence (looked up): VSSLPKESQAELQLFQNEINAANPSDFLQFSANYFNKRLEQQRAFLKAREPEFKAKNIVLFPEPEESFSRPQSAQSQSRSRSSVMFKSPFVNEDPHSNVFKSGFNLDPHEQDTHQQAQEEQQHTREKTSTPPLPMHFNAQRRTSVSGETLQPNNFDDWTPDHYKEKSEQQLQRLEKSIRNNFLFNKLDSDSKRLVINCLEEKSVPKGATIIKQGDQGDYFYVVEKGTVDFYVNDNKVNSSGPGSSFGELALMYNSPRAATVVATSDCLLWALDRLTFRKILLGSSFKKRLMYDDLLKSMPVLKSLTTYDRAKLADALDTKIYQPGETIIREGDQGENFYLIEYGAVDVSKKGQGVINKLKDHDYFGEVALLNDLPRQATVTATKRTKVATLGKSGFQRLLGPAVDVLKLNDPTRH
The assay is described as follows: anti-FLAG co-IP, LC-MS/MS.

The target in assay [4] is T4, Dun1 (Saccharomyces cerevisiae) (UniProt P39009).
T4 sequence (looked up): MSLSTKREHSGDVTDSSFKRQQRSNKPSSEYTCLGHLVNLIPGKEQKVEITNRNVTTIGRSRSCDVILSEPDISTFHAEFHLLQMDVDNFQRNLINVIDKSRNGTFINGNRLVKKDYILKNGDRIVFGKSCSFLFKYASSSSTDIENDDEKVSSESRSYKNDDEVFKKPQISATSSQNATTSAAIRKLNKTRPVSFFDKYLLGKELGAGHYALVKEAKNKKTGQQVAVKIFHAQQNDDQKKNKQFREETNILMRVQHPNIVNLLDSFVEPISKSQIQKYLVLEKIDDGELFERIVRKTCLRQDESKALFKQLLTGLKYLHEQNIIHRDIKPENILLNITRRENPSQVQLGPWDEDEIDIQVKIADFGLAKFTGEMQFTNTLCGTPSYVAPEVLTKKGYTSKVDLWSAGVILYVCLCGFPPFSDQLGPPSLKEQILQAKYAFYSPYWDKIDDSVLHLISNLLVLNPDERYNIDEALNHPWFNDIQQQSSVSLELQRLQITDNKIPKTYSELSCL
Description: anti-FLAG co-IP, LC-MS/MS; Dun1 was the prey by Table 2.

Assay [5] addresses T4, Dun1 (Saccharomyces cerevisiae). The assay is described as follows: anti-FLAG co-IP, LC-MS/MS.

B1: Ptc3 (protein, Saccharomyces cerevisiae, UniProt P34221 1-468, looked up)
chain: MGQILSNPIIDKEHHSGTDCLTAFGLCAMQGWRMSMEDAHIVEPNLLAESDEEHLAFYGIFDGHGGSSVAEFCGSKMISILKKQESFKSGMLEQCLIDTFLATDVELLKDEKLKDDHSGCTATVILVSQLKKLLICANSGDSRTVLSTGGNSKAMSFDHKPTLLSEKSRIVAADGFVEMDRVNGNLALSRAIGDFEFKSNTKLGPHEQVVTCVPDIICHNLNYDEDEFVILACDGIWDCLTSQECVDLVHYGISQGNMTLSDISSRIVDVCCSPTTEGSGIGCDNMSISIVALLKENESESQWFERMRSKNYNIQTSFVQRRKSIFDFHDFSDDDNEVFAITTKKLQDRLNRSKDNDDMEIDDLDTELGSSATPSKLSGEDRTGPIDLFSLEALLEAGIQIRQRPSSDSDGNTSYFHGASLSDMLASLSNAAAGETEPNDADDNDDNDGEENGKNENAKKGSKIEEIE
For B1, the binding entry in assay [1] is recorded as “binds”.

B2: Met18/Mms19 (protein, Saccharomyces cerevisiae, UniProt P40469 1-1032, looked up)
chain: MTPDELNSAVVTFMANLNIDDSKANETASTVTDSIVHRSIKLLEVVVALKDYFLSENEVERKKALTCLTTILAKTPKDHLSKNECSVIFQFYQSKLDDQALAKEVLEGFAALAPMKYVSINEIAQLLRLLLDNYQQGQHLASTRLWPFKILRKIFDRFFVNGSSTEQVKRINDLFIETFLHVANGEKDPRNLLLSFALNKSITSSLQNVENFKEDLFDVLFCYFPITFKPPKHDPYKISNQDLKTALRSAITATPLFAEDAYSNLLDKLTASSPVVKNDTLLTLLECVRKFGGSSILENWTLLWNALKFEIMQNSEGNENTLLNPYNKDQQSDDVGQYTNYDACLKIINLMALQLYNFDKVSFEKFFTHVLDELKPNFKYEKDLKQTCQILSAIGSGNVEIFNKVISSTFPLFLINTSEVAKLKLLIMNFSFFVDSYIDLFGRTSKESLGTPVPNNKMAEYKDEIIMILSMALTRSSKAEVTIRTLSVIQFTKMIKMKGFLTPEEVSLIIQYFTEEILTDNNKNIYYACLEGLKTISEIYEDLVFEISLKKLLDLLPDCFEEKIRVNDEENIHIETILKIILDFTTSRHILVKESITFLATKLNRVAKISKSREYCFLLISTIYSLFNNNNQNENVLNEEDALALKNAIEPKLFEIITQESAIVSDNYNLTLLSNVLFFTNLKIPQAAHQEELDRYNELFISEGKIRILDTPNVLAISYAKILSALNKNCQFPQKFTVLFGTVQLLKKHAPRMTETEKLGYLELLLVLSNKFVSEKDVIGLFDWKDLSVINLEVMVWLTKGLIMQNSLESSEIAKKFIDLLSNEEIGSLVSKLFEVFVMDISSLKKFKGISWNNNVKILYKQKFFGDIFQTLVSNYKNTVDMTIKCNYLTALSLVLKHTPSQSVGPFINDLFPLLLQALDMPDPEVRVSALETLKDTTDKHHTLITEHVSTIVPLLLSLSLPHKYNSVSVRLIALQLLEMITTVVPLNYCLSYQDDVLSALIPVLSDKKRIIRKQCVDTRQVYYELGQIPFE
With B2, the binding entry in assay [2] and in assay [3] was “binds” in each case.

B3: TFB3 (protein, Saccharomyces cerevisiae, UniProt Q03290 1-321, looked up)
chain: MLMDEYEENKDMCPICKTDRYLSPDVKFLVNPECYHRICESCVDRIFSLGPAQCPYKGCDKILRKNKFKTQIFDDVEVEKEVDIRKRVFNVFNKTIDDFNGDLVEYNKYLEEVEDIIYKLDHGIDVAKTEEKLRTYEELNKQLIMNNLERSRTEIESFEQRQKFEKEMKLKKRLLERQIEEEERMNKEWTKKEIVNRLSTTTQDINETIEGVKNTVKLKKSSARRKLEELNRVLKNNPYFNSNVNVQNSRLKDAVPFTPFNGDREAHPRFTLKGSVYNDPFIKDLEHRKEFIASGFNTNYAYERVLTEAFMGLGCVISEEL
B3: the binding entry in assay [2] was “binds”.

B4: Sml1 (protein, Saccharomyces cerevisiae, UniProt Q04964 1-104, looked up)
chain: MQNSQDYFYAQNRCQQQQAPSTLRTVTMAEFRRVPLPPMAEVPMLSTQNSMGSSASASASSLEMWEKDLEERLNSIDHDMNNNKFGSGELKSMFNQGKVEEMDF
As for B4, the binding entry in assay [4] and in assay [5] was “binds” each time.

B5: Rad9 (protein, Saccharomyces cerevisiae, UniProt P14737 1-1309, looked up)
chain: MSGQLVQWKSSPDRVTQSAIKEALHSPLADGDMNEMNVPVDPLENKVNSTNIIEGSPKANPNPVKFMNTSEIFQKSLGLLDESPRHDDELNIEVGDNDRPNANILHNERTPDLDRIANFFKSNRTPGKENLLTKYQSSDLEDTPLMLRKKMTFQTPTDPLEQKTFKKLKSDTGFCYYGEQNDGEENASLEVTEADATFVQMAERSADNYDCALEGIVTPKRYKDELSKSGGMQDERVQKTQIMISAESPNSISSYDKNKITGNGRTTRNVNKVFNNNEDNIGAIEEKNPVKKKSENYSSDDLRERNNQIIQSNESEEINELEKNLNVSGRENDVNNLDIDINSAVSGTPSRNNAEEEMYSSESVNNREPSKKWIFRYSKDKTENNSNRSTQIVNNPRTQEMPLDSISIDTQPLSKSFNTETNNELETQIIVSSLSQGISAQKGPVFHSTGQTEEIKTQIINSPEQNALNATFETPVTLSRINFEPILEVPETSSPSKNTMSKPSNSSPIPKEKDTFNIHEREVETNNVFSNDIQNSSNAATRDDIIIAGSSDFNEQKEITDRIYLQLSGKQISDSGSDETERMSPNELDTKKESTIMSEVELTQELPEVEEQQDLQTSPKKLVVEEETLMEIKKSKGNSLQLHDDNKECNSDKQDGTESLDVALIEHESKGQSSELQKNLMQLFPSESQEIIQNRRTIKRRQKDTIEIGEEEENRSTKTSPTKHLKRNSDLDAASIKREPSCSITIQTGETGSGKDSKEQSYVFPEGIRTADNSFLSKDDIIFGNAVWCQYTWNYKFYPGILLEVDTNQDGCWIYFETGRSLTKDEDIYYLDIRIGDAVTFDGNEYVVVGLECRSHDLNIIRCIRGYDTVHLKKKNASGLLGKRTLIKALSSISLDLSEWAKRAKIILEDNEKNKGDAYRYLRHPIRGRKSMTNVLSPKKHTDDEKDINTHTEVYNNEIESSSEKKEIVKKDSRDALAEHAGAPSLLFSSGEIRTGNVFDKCIFVLTSLFENREELRQTIESQGGTVIESGFSTLFNFTHPLAKSLVNKGNTDNIRELALKLAWKPHSLFADCRFACLITKRHLRSLKYLETLALGWPTLHWKFISACIEKKRIVPHLIYQYLLPSGESFRLSLDSPSKGGIIKSNNIFSFYTQFLRGSNLRDQICGVKKMLNDYIVIVWGRSELDSFVKFAFACLSAGRMLTIDLPNIDVDDTEPLLNALDSLVPRIGSELSNRKLKFLIYANENNGKSQMKLLERLRSQISLKFKKFNYIFHTESKEWLIQTIINEDTGFHDDITDNDIYNTISEVR
Turning to B5, the binding entry in assay [4] and in assay [5] was “binds” each time.

B6: Ptc4 (protein, Saccharomyces cerevisiae, UniProt P38089 1-393, looked up)
chain: MGQLLSHPLTEKTIEYNEYKNNQASTGIVPRFYNCVGSMQGYRLTQEDAHLIRNENSVVYVRFFNPFIDKYETLSLNVFAVFDGHGGDDCSKFLSGGRHHRDGNGSSNGNGEPNAGLIKWIAYSFENHHYTSTTNNDSSKFKRSFNTLEGLVSQIFKDAFILQDEELYRHFANSSCGSTAVVACIINEESLYVANCGDSRCILSSKSNGIKTMSFDHKPQHIGELIRINDNGGTVSLGRVGGVLALSRAFSDFQFKRGVTYPHRRTKLTNITQNLTYGTPPQEAQVTVEPDVLMHKIDYSKDEFLVLACDGIWDIYNNKQLIHFIKYHLVSGTKLDTIITKLLDHGIAQANSNTGVGFDNMTAIIVVLNRKGETLQDWFNKMKTRLERERGLV
B6: in assay [1], the binding result is given as “binds”.
